In publication PMC9203742 (Nature Communications, 2022):
Where “and” joins values, the source holds several entries; their conditions need not be identical. Equal values may be shown once. This continues a long series; more values of the same kind are listed elsewhere.

Key:
Type in all cases: cell-based, mouse
[1] = test system: Purkinje cells in cerebellar slices from mGlu1^CBC/+ mice; experiment: chemLTD recording (PF-EPSC) in Purkinje cells of acute cerebellar slices, mGlu1^CBC/+ mice; details: mGlu1CBC/+, individual cells
Method: Sagittal cerebellar slices were cut with a microslicer (Linear slicer Pro7; DOSAKA EM) in cutting solution buffer and then incubated in ACSF gassed with 5% CO2 and 95% O2 at room temperature.
Whole-cell patch-clamp recordings were made from visually identified Purkinje cells using a 60× water-immersion objective attached to an upright microscope (BX51WI, Olympus) at room temperature, as described previously. […] Picrotoxin (100 µM; Sigma) was always added to the saline to block inhibitory synaptic transmission.
To evoke EPSCs derived from CF (CF-EPSCs) and PF (PF-EPSCs) inputs onto Purkinje cells, square pulses were applied through a stimulating electrode placed on the granular layer and the molecular layer (50 µm away from the pial surface), respectively. The selective stimulation of CFs and PFs was confirmed by the paired-pulse depression (PPD) and paired-pulse facilitation (PPF) of EPSC amplitudes at a 50-ms interstimulus interval (ISI), respectively.
For the LTD sessions, PF-EPSCs were recorded successively at a frequency of 0.1 Hz from Purkinje cells clamped at –80 mV. After a stable PF-EPSC amplitude had been observed for at least 5 min, a conjunctive stimulation that consisted of 30 single PF stimuli together with a 200 ms depolarizing pulse from a holding potential of –60 to +20 mV was applied for LTD induction.
To chemically induce LTD (chemLTD), 50 µM (S)-3,5-dihydroxyphenylglycine (DHPG) or 1 µM Pd(sulfo-bpy) was applied for 10 min in a current-clamp mode. We often observed a transient decrease in PF-EPSC amplitude after the application of each drug probably because Purkinje cells under current-clamp conditions excite spontaneously to suppress presynaptic function through the retrograde signaling. Access resistances were monitored every 10 s by measuring the peak currents in response to 2 mV, 50-ms hyperpolarizing steps throughout the experiments; the measurements were discarded if the resistance changed by >20% of its original value. The normalized EPSC amplitude on the ordinate represents the EPSC amplitude for the average of six traces for 1 min divided by that of the average of six traces for 1 min immediately before the conjunctive stimulation or the drug application.

[2] = test system: GFP-positive Purkinje cells infected with AAV-L7-mGlu1^CBC; experiment: chemLTD recording in GFP-positive Purkinje cells, slices infected with AAV-L7-mGlu1^CBC; details: AAV-L7-mGlu1CBC
[3] = test system: GFP-positive Purkinje cells infected with AAV-L7-mGlu1^WT; experiment: chemLTD recording in GFP-positive Purkinje cells, slices infected with AAV-L7-mGlu1^WT; details: AAV-L7-mGlu1WT

In the case of Cc1ccnc(-c2cc(COCCCS(=O)(=O)[O-])ccn2)c1.[Cl][Pd][Cl].[Na+] [Pd(sulfo-bpy)], the “PF-EPSC amplitude relative to time 0” value ([1]; time 29 min) was 0.5423 and 0.5779 and 0.834 and 0.6772 and 0.5703 and 0.7242 and 0.6413 and 0.9077, the “PF-EPSC amplitude relative to time 0” value ([1]; time 30 min) was 0.5346 and 0.5702 and 0.8473 and 0.693 and 0.5412 and 0.687 and 0.6391 and 0.8461 and the “PF-EPSC amplitude relative to time 0” value ([1]; time 31 min) was 0.583 and 0.5743 and 0.8498 and 0.6369 and 0.5735 and 0.726 and 0.678 and 0.9086. The “PF-EPSC amplitude relative to time 0” value ([1]; time 32 min) was 0.5526 and 0.5451 and 0.8895 and 0.6477 and 0.5619 and 0.5767 and 0.6547 and 0.9603, the “PF-EPSC amplitude relative to time 0” value ([1]; time 33 min) was 0.5438 and 0.4906 and 0.8315 and 0.6387 and 0.6003 and 0.6337 and 0.6759 and 0.9643 and the “PF-EPSC amplitude relative to time 0” value ([1]; time 34 min) was 0.5442 and 0.5724 and 0.8449 and 0.6303 and 0.652 and 0.5905 and 0.6831 and 0.9693. The “PF-EPSC amplitude relative to time 0” value ([1]; time 35 min) was 0.5766 and 0.6213 and 0.783 and 0.6375 and 0.6196 and 0.5612 and 0.6583 and 0.993, the “PF-EPSC amplitude normalized to time 0, individual Purkinje cells” value (“PF-EPSC amplitude normalized” below) ([2]; Time 25 min) was 0.862 and 0.61 and 0.944 and 0.587 and 0.805 and the “PF-EPSC amplitude normalized” value ([2]; Time 26 min) was 0.4944 and 0.6562 and 0.7821 and 0.6522 and 0.9738 and 0.5721 and 0.7975. For the same compound, the “PF-EPSC amplitude normalized” value ([2]; Time 27 min) was 0.5827 and 0.7214 and 0.6652 and 0.6239 and 0.941 and 0.5054 and 0.8456, the “PF-EPSC amplitude normalized” value ([2]; Time 28 min) was 0.6398 and 0.6872 and 0.5906 and 0.5735 and 0.9266 and 0.5925 and 0.8256 and the “PF-EPSC amplitude normalized” value ([2]; Time 29 min) was 0.6647 and 0.6813 and 0.7075 and 0.5997 and 0.9301 and 0.6112 and 0.7856. For the same compound, the “PF-EPSC amplitude normalized” value ([2]; Time 30 min) was 0.6699 and 0.6415 and 0.7376 and 0.6393 and 0.9138 and 0.5616 and 0.7359, the “PF-EPSC amplitude normalized” value ([2]; Time 31 min) was 0.6297 and 0.5634 and 0.7116 and 0.6582 and 0.9335 and 0.571 and 0.7292 and the “PF-EPSC amplitude normalized” value ([2]; Time 32 min) was 0.6048 and 0.6159 and 0.7683 and 0.5824 and 0.8965 and 0.5923 and 0.7474. The “PF-EPSC amplitude normalized” value ([2]; Time 33 min) was 0.5723 and 0.6306 and 0.67 and 0.6221 and 0.9751 and 0.6076 and 0.6739, the “PF-EPSC amplitude normalized” value ([2]; Time 34 min) was 0.6195 and 0.7395 and 0.6058 and 0.5053 and 0.9588 and 0.5475 and 0.4466 and the “PF-EPSC amplitude normalized” value ([2]; Time 35 min) was 0.5102 and 0.6678 and 0.7994 and 0.5274 and 0.9737 and 0.5592 and 0.341. For the same compound, the “PF-EPSC amplitude normalized” value ([2]; Time 36 min) was 0.6351 and 0.7241 and 0.8653 and 0.6146 and 0.9982 and 0.5624, the “PF-EPSC amplitude normalized” value ([2]; Time 37 min) was 0.6435 and 0.8951 and 1.128 and 0.8089 and 0.9455 and 0.6042 and the “PF-EPSC amplitude normalized” value ([2]; Time 38 min) was 0.6069 and 1.7 and 0.8591 and 1.3337 and 0.9315. For the same compound, the “PF-EPSC amplitude normalized” value ([3]; Time 25 min) was 0.8818 and 0.9425 and 1.0844 and 0.5784 and 0.9859, the “PF-EPSC amplitude normalized” value ([3]; Time 26 min) was 1.004 and 0.9231 and 0.8221 and 0.9404 and 1.037 and 0.585 and 0.9556 and the “PF-EPSC amplitude normalized” value ([3]; Time 27 min) was 1.073 and 0.923 and 0.8487 and 0.9084 and 1.097 and 0.5895 and 0.9443. The “PF-EPSC amplitude normalized” value ([3]; Time 28 min) was 1.11 and 0.9481 and 0.8852 and 0.9612 and 1.149 and 0.5973 and 0.9705, the “PF-EPSC amplitude normalized” value ([3]; Time 29 min) was 1.069 and 0.7935 and 0.9277 and 0.9552 and 1.169 and 0.557 and 0.9446 and the “PF-EPSC amplitude normalized” value ([3]; Time 30 min) was 1.046 and 0.644 and 0.8651 and 0.9247 and 1.165 and 0.5678 and 0.9522. For the same compound, the “PF-EPSC amplitude normalized” value ([3]; Time 31 min) was 1.046 and 0.6373 and 0.8291 and 0.9162 and 1.128 and 0.5443 and 0.8801, the “PF-EPSC amplitude normalized” value ([3]; Time 32 min) was 1.178 and 0.7545 and 0.8295 and 0.911 and 1.061 and 0.5272 and 0.8976 and the “PF-EPSC amplitude normalized” value ([3]; Time 33 min) was 1.0972 and 0.8511 and 0.8322 and 0.8783 and 0.9952 and 0.5531 and 0.8493. The “PF-EPSC amplitude normalized” value ([3]; Time 34 min) was 1.136 and 0.8651 and 0.9034 and 0.8734 and 0.9683 and 0.5732 and 0.9496, the “PF-EPSC amplitude normalized” value ([3]; Time 35 min) was 1.17 and 0.8178 and 0.8694 and 0.8838 and 1.083 and 0.5142 and 0.9812 and the “PF-EPSC amplitude normalized” value ([3]; Time 36 min) was 1.192 and 0.9334 and 0.8592 and 0.8469 and 1.019 and 0.5108 and 0.9303. For the same compound, the “PF-EPSC amplitude normalized” value ([3]; Time 37 min) was 1.221 and 1.077 and 0.4748 and 0.9426 and the “PF-EPSC amplitude normalized” value ([3]; Time 38 min) was 1.176 and 0.6699 and 1.074 and 0.4085 and 0.9188.
